Results deposited as PubChem BioAssay AID1259424 (University of Nebraska Medical Center, 2018).
The whole screen tested about 14,000 reagents; below is a random part of them. 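Higher correlation or smaller distance means closer resemblance to KSR1 loss; control wells, including KSR1 knockdowns, recur on many plates.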 Further read-outs or replicates are left out here. Not stated in the record: the time to read-out.

Test: 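Find knockdowns that reproduce the expression shifts seen after KSR1 loss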 (primary screen)
Cell system: human HCT116 colon cancer cells
Reagents: siRNA pool against human genes, 50 nM
Measured: 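Log2 levels of six mRNAs (branched-DNA multiplex), adjusted by two reference genes and the non-targeting median, then scored against the average KSR1 knockdown pattern as Pearson r and euclidean distance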
Direction: mean correlation with KSR1 profile: higher = expression change more like KSR1 knockdown; mean distance from KSR1 profile: higher = expression change less like KSR1 knockdown

What is on record for REST?
mean correlation with KSR1 profile: -0.108; mean distance from KSR1 profile: 2.3

What did the screen give for PRDX1?
mean correlation with KSR1 profile: 0.17; mean distance from KSR1 profile: 1.27

What did the screen give for HPF1?
mean correlation with KSR1 profile: -0.536; mean distance from KSR1 profile: 3.29

For AREL1, how do the results read?
mean correlation with KSR1 profile: -0.134; mean distance from KSR1 profile: 2.05

With CSHL1, what does the deposit list?
mean correlation with KSR1 profile: -0.736; mean distance from KSR1 profile: 2.53

Which result is listed for SEMA4B?
mean correlation with KSR1 profile: -0.171; mean distance from KSR1 profile: 4.06

Which result is listed for MPI?
mean correlation with KSR1 profile: 0.0207; mean distance from KSR1 profile: 1.8

With FGF9, what was measured?
mean correlation with KSR1 profile: 0.84; mean distance from KSR1 profile: 0.535

What did the screen give for GOT1?
mean correlation with KSR1 profile: 0.699; mean distance from KSR1 profile: 1.54

Which result is listed for GALNT1?
mean correlation with KSR1 profile: -0.583; mean distance from KSR1 profile: 1.85

A stretch of the results above, for reference:
FGF9 | mean correlation with KSR1 profile: 0.84; mean distance from KSR1 profile: 0.535
GOT1 | mean correlation with KSR1 profile: 0.699; mean distance from KSR1 profile: 1.54

The listing continues.
What is on record for TMEM40?
mean correlation with KSR1 profile: -0.577; mean distance from KSR1 profile: 2.67

What did the screen give for GLIPR1L1?
mean correlation with KSR1 profile: 0.79; mean distance from KSR1 profile: 0.988

For TAOK1, how do the results read?
mean correlation with KSR1 profile: -0.175; mean distance from KSR1 profile: 1.51

Which result is listed for HHIPL2?
mean correlation with KSR1 profile: 0.459; mean distance from KSR1 profile: 1.54

What is on record for TCEA3?
mean correlation with KSR1 profile: 0.057; mean distance from KSR1 profile: 2.05

What is on record for ATP7A?
mean correlation with KSR1 profile: 0.243; mean distance from KSR1 profile: 2.96

Which result is listed for BRAF?
mean correlation with KSR1 profile: 0.0162; mean distance from KSR1 profile: 2.76

With IRF1, what was measured?
mean correlation with KSR1 profile: 0.25; mean distance from KSR1 profile: 2.56

With POU3F1, what does the deposit list?
mean correlation with KSR1 profile: -0.452; mean distance from KSR1 profile: 1.97
